The record followed here is patent US4803208A, “Opiate agonists and antagonists” (Sloan-Kettering Institute For Cancer Research, priority 1985, dated 1989).

For this test, the system named is mice. The class given is in vivo, mouse. To be noted: no pretreatment.

Regarding `CN1CC[C@]23c4c5ccc(O)c4O[C@H]2[C@@H](O)C=C[C@H]3[C@H]1C5.O=S(=O)(O)O` [Morphine sulfate, morphine sulfate], the “Morphine sulfate ED50 value, control group” value was found to be 3.7 mg/kg s.c.
